These results are taken from the supplement of paper PMC12819154, “High-throughput peptide-centric local stability assay extends protein–ligand identification to membrane proteins, tissues and bacteria” (Nature Structural & Molecular Biology, 2025).

Sequences of proteins named here, by UniProt entry; tags and fusion partners are left off. A change or cut given only in a name is not applied to a line headed by its entry.
UniProt Q8BGC1: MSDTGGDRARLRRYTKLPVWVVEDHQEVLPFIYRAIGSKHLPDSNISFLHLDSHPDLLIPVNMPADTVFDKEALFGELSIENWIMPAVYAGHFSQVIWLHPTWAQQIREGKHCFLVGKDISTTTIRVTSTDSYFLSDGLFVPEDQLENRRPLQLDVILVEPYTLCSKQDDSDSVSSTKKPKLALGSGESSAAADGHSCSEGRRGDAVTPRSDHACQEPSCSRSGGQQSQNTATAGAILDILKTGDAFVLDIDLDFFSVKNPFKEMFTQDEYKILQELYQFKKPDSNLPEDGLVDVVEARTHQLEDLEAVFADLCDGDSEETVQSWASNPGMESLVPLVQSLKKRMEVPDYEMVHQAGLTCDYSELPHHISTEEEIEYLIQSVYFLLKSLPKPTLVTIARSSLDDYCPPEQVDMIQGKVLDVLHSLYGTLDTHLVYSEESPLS
UniProt Q80WC7: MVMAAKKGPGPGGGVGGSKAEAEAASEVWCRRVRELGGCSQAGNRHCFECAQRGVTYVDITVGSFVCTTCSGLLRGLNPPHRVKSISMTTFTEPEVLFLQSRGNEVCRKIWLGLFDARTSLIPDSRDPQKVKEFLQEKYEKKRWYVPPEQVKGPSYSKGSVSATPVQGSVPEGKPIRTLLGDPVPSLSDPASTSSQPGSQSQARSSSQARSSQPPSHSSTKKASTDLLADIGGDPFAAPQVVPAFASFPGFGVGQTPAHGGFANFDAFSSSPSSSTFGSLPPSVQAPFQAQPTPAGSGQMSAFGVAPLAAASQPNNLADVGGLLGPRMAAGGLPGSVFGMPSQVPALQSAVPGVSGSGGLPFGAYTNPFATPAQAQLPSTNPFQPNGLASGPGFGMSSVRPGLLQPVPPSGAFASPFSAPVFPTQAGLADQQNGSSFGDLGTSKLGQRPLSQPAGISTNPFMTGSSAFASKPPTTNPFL
UniProt Q80W22: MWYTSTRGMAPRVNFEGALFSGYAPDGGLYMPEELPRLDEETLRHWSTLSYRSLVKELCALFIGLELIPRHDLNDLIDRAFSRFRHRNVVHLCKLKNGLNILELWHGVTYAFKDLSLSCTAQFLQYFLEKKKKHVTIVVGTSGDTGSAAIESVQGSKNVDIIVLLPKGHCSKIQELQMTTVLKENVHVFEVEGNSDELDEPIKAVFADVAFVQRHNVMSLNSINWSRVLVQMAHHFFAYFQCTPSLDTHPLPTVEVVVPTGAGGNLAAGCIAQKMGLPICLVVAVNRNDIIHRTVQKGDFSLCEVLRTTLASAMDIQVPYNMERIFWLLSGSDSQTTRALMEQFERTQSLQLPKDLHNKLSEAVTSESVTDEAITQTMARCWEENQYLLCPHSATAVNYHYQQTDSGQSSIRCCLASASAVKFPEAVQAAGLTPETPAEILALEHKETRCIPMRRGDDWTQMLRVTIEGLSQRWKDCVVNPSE
UniProt Q80XA6: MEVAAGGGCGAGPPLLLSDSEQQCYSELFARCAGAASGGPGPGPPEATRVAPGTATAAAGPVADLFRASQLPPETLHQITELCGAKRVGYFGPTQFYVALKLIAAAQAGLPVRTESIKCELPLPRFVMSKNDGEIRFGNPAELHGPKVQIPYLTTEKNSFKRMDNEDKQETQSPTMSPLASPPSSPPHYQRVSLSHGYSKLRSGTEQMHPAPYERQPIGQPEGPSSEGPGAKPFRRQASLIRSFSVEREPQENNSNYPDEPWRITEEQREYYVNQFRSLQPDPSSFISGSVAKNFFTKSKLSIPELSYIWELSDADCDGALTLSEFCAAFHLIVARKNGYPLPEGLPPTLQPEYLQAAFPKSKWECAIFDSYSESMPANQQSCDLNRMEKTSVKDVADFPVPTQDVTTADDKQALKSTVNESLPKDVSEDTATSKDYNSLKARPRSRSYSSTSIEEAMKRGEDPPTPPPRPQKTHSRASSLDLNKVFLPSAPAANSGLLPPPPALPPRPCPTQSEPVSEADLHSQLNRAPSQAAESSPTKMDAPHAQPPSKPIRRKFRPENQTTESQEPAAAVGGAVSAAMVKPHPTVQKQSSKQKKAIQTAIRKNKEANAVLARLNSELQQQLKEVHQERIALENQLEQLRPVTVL
UniProt Q80YF9: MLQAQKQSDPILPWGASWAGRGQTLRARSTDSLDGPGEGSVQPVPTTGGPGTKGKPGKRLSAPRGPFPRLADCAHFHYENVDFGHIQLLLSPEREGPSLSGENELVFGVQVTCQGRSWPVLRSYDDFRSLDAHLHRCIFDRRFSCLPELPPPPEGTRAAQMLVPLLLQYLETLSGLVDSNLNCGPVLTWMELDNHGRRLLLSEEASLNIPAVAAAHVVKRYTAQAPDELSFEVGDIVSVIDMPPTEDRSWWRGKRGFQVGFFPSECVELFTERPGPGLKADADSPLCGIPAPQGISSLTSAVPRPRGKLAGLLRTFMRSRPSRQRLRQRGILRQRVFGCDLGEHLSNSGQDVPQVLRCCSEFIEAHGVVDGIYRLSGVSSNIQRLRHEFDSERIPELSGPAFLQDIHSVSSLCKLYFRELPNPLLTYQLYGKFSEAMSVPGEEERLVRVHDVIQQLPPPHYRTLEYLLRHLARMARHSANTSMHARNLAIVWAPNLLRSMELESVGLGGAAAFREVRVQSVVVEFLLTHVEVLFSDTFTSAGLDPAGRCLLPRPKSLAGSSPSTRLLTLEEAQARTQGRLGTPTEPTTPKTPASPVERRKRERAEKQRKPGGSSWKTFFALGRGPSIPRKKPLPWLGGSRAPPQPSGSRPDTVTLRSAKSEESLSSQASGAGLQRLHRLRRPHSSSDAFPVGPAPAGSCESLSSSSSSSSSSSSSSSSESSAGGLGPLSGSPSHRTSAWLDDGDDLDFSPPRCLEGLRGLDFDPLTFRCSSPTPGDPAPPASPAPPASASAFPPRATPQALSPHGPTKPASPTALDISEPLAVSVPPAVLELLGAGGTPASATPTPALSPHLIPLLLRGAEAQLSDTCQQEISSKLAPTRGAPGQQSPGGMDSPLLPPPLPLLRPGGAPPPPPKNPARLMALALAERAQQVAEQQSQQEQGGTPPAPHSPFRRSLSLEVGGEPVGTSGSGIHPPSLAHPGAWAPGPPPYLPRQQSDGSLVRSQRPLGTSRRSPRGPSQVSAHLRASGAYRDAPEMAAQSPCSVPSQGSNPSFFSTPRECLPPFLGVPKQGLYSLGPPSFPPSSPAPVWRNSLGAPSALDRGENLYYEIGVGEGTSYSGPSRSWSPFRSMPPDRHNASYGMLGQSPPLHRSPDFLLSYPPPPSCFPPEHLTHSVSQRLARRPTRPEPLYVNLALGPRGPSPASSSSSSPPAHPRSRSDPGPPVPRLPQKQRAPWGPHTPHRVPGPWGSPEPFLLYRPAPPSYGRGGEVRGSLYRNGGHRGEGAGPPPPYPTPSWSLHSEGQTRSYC
UniProt Q8BG48: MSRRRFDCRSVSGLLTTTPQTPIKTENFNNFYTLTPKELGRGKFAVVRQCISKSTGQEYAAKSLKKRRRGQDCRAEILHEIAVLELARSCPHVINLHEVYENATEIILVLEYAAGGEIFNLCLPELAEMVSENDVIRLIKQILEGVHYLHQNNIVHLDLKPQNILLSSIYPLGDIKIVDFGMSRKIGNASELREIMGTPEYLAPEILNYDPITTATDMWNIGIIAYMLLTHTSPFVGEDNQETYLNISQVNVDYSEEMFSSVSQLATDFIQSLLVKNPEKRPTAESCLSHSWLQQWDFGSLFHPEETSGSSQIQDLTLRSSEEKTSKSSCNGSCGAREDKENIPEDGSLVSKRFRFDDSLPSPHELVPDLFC
UniProt Q8BGC3: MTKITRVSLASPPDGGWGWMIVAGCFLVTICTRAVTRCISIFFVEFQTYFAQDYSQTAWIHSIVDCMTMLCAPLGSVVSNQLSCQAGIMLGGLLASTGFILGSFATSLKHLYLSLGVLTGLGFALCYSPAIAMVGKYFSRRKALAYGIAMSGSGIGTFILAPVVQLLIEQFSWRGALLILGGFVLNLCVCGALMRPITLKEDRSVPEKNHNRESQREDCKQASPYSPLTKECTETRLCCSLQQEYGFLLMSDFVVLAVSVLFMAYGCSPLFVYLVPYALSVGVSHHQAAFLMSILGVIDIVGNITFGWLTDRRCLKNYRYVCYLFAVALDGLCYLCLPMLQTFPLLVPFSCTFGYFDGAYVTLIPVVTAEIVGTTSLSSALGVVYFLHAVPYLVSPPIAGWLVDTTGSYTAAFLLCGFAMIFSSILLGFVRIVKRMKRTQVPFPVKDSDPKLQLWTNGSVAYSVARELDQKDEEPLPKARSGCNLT
UniProt Q8BHG1: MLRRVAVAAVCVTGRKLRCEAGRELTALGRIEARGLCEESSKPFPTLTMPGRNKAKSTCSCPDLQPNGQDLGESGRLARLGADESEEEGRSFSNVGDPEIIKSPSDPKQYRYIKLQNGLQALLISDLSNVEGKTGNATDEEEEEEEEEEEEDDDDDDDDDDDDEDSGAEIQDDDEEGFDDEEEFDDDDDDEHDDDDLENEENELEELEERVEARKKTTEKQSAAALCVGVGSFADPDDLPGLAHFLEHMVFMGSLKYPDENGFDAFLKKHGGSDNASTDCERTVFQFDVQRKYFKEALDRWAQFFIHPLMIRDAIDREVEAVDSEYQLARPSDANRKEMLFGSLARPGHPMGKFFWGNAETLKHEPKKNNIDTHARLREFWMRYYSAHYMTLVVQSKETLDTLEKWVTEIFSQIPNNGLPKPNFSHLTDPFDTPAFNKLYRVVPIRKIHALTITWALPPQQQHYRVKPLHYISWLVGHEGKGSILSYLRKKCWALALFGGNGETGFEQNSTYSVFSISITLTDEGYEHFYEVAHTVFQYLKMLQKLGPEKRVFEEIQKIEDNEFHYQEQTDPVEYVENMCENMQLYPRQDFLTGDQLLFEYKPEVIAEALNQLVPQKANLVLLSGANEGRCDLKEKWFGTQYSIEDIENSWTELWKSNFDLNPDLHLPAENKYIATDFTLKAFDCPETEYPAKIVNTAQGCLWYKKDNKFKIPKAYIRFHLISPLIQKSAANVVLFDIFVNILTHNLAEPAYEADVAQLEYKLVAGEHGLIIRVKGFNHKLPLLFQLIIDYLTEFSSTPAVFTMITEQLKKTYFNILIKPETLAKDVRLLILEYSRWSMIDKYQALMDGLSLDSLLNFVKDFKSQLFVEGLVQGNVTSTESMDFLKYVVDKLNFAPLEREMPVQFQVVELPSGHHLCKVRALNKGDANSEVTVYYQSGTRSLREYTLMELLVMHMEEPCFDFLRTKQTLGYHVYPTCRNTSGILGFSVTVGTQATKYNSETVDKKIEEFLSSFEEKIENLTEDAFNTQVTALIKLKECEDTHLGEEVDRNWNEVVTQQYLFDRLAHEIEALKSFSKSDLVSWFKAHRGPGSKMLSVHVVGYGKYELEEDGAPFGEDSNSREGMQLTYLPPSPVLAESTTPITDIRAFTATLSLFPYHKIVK
UniProt Q8BG67: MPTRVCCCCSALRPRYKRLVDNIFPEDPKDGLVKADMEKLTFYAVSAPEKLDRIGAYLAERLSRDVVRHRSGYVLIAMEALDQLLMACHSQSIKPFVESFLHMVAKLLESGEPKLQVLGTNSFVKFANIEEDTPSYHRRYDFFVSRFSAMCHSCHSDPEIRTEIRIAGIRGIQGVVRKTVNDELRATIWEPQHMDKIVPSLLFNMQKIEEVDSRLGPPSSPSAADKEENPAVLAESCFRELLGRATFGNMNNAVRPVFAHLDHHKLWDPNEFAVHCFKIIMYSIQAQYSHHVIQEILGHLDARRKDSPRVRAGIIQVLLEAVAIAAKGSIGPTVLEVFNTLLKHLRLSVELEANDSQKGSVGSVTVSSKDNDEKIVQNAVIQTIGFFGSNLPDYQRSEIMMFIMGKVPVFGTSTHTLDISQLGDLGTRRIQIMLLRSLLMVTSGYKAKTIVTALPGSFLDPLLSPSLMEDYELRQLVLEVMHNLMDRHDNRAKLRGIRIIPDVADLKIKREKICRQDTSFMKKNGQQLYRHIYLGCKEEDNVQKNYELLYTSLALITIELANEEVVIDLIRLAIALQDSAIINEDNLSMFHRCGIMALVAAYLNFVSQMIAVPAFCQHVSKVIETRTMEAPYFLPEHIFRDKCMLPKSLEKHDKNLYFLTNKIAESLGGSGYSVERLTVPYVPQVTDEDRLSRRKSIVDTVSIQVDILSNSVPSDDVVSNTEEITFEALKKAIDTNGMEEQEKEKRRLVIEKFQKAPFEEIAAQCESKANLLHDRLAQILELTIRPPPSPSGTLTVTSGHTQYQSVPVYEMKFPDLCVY
UniProt Q810U5: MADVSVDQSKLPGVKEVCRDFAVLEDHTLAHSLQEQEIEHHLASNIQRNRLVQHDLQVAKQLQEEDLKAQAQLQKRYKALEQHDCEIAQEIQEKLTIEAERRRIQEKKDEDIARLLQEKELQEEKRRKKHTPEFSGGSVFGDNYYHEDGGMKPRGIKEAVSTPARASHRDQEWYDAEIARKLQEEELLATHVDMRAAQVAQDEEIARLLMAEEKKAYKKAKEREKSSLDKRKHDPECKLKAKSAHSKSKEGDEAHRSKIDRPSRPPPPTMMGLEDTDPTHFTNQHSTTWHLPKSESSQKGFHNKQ

The other results are listed elsewhere or left out. Most values lie at the level of the controls, where differences are scatter.

Compound in this experiment: CN[C@@H]1C[C@H]2O[C@@](C)([C@@H]1OC)n1c3ccccc3c3c4c(c5c6ccccc6n2c5c31)C(=O)NC4 [staurosporine]
Briefly: log2 fold change of tryptic peptide abundance, ligand vs vehicle (limited proteolysis) (log2 ratio); higher = more trypsin-susceptible (destabilized). Particulars: ligand concentration: 20 uM; sample: mouse liver crude lysate; replicate design: treated separately.
For “UniProt Q8BGC1 (peptide sequence: ILQELYQFK, peptide start residue: 273)”, the log2 fold change was -0.107.

With “UniProt Q8BFQ8 (peptide sequence: AYASPAKLESIDGAR, peptide start residue: 71)”, the log2 fold change was 0.386.

For “UniProt Q80WC7 (peptide sequence: WYVPPEQVK, peptide start residue: 144)”, the log2 fold change was -0.346.

Turning to “UniProt Q8BH07 (peptide sequence: NGIFPATAAK, peptide start residue: 88)”, the log2 fold change amounted to 0.172.

Take “UniProt Q80W22 (peptide sequence: MGLPICLVVAVNRNDIIHR, peptide start residue: 275)”: the log2 fold change was found to be 0.464.

Take “UniProt Q80VI1 (peptide sequence: CVLPQLELHPGLEDK, peptide start residue: 347)”: the log2 fold change amounted to 0.255.

As to “UniProt Q80XA6 (peptide sequence: AIQTAIRK, peptide start residue: 598)”, the log2 fold change is -0.371.

For the target “UniProt Q80YF9 (peptide sequence: LLTLEEAQAR, peptide start residue: 597)”, the log2 fold change is -0.271.

In the case of “UniProt Q8BH43 (peptide sequence: GSVLAGPKR, peptide start residue: 283)”, the log2 fold change is -0.19.

Take “UniProt Q8BGN9 (peptide sequence: VHLAALPERYDSLEEPAPGDKPK, peptide start residue: 68)”: the log2 fold change was -0.0533.

Consider “UniProt Q812A3 (peptide sequence: LKLEEEK, peptide start residue: 49)”, for which the log2 fold change is -0.0425.

For the target “UniProt Q8BG48 (peptide sequence: EDKENIPEDGSLVSKR, peptide start residue: 338)”, the log2 fold change was -0.432.

Consider “UniProt Q811M1 (peptide sequence: SSSSELPSHCHIDRK, peptide start residue: 216)”, for which the log2 fold change was 0.147.

Turning to “UniProt Q8BGC3 (peptide sequence: QASPYSPLTK, peptide start residue: 221)”, the log2 fold change was -0.314.

“UniProt Q8BHF7 (peptide sequence: LLGLLPGRPGLAALLGR, peptide start residue: 14)”: the log2 fold change is 0.213.

For the target “UniProt Q8BFR5 (peptide sequence: FKKYEEIDNAPEER, peptide start residue: 89)”, the log2 fold change is -0.108.

Consider “UniProt Q8BHN3 (peptide sequence: DAVHYGGWEHR, peptide start residue: 559)”, for which the log2 fold change is -0.596.

Take “UniProt Q8BFX3 (peptide sequence: GFEAGGFLGR, peptide start residue: 758)”: the log2 fold change was -0.677.

With “UniProt Q8BGY7 (peptide sequence: KEETDPLQDK, peptide start residue: 110)”, the log2 fold change worked out at 0.479.

As for “UniProt Q8BHG1 (peptide sequence: LGADESEEEGR, peptide start residue: 80)”, the log2 fold change was determined as 0.177.

“UniProt Q8BH61 (peptide sequence: CGPASVQAVK, peptide start residue: 410)”: the log2 fold change came out at 0.122.

Consider “UniProt Q8BHL5 (peptide sequence: LDAMKELAK, peptide start residue: 101)”, for which the log2 fold change is -0.235.

As for “UniProt Q80ZM3 (peptide sequence: VLIGDPGRPQFSGHSIR, peptide start residue: 207)”, the log2 fold change was -0.0395.

For the target “UniProt Q80VJ3 (peptide sequence: AVALGKPILCLFRPQSGR, peptide start residue: 97)”, the log2 fold change is -0.192.

Take “UniProt Q8BGX7 (peptide sequence: AEQHLIVAAPLR, peptide start residue: 470)”: the log2 fold change was -0.141.

As to “UniProt Q8BGR6 (peptide sequence: AVPFQNAVLNVK, peptide start residue: 70)”, the log2 fold change was -0.15.

“UniProt Q80W49 (peptide sequence: SYVEFSEPTTSSLQHGR, peptide start residue: 229)”: the log2 fold change was -0.339.

Turning to “UniProt Q8BG67 (peptide sequence: KAIDTNGMEEQEKEK, peptide start residue: 731)”, the log2 fold change came to 1.24.

For the target “UniProt Q810U5 (peptide sequence: SKEGDEAHR, peptide start residue: 248)”, the log2 fold change was -0.616.

Consider “UniProt Q8BH50 (peptide sequence: DSSESQLASTESDKPTTGR, peptide start residue: 65)”, for which the log2 fold change is -0.203.
